Laboratory results reported in article PMC7237858.

Biological target: SRSP, bait of the interactomics analysis (human)
Assay: affinity purification with mass spectrometry; interactomics analysis of SRSP-interacting proteins; nano-LC-MS/MS; proteins with FDR ≤1% and unique peptides ≥2 selected

B1: serine- and arginine-rich splicing factor 3 (SRSF3), identified by mass spectrometry among SRSP-interacting proteins (protein, UniProt P84103 1-164)
chain: MHRDSCPLDCKVYVGNLGNNGNKTELERAFGYYGPLRSVWVARNPPGFAFVEFEDPRDAADAVRELDGRTLCGCRVRVELSNGEKRSRNRGPPPSWGRRPRDDYRRRSPPPRRRSPRRRSFSRSRSRSLSRDRRRERSLSRERNHKPSRSFSRSRSRSRSNERK
B1 was tested, and the binding was “binds”.

These are yes or no findings as the source states them, for the method shown. In cells and extracts the contact can be indirect. These calls come from enrichment with a bait or labelling near it, and not all partners need be listed.
